{"source": "PubChem BioAssay AID1259308, NCATS | 2017", "aim": "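Knock-downs that increase output of a recombinant reporter protein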 (primary screen)", "system": "human HEK293 embryonic kidney cells stably expressing firefly luciferase (HEK-CMV-Luc2-Hygro)", "reagents": "single siRNA against human genes, 0.8 pmol siRNA per well", "duration": "72 h", "read-out": "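Reporter luminescence and viable-cell signal on separate replicate plates, given as percent of non-targeting control and median/MAD z-scores, plus per-cell luciferase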", "scale": "total luciferase, z-score: higher = more reporter protein produced", "call rule": "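An siRNA counts as active if its total luciferase robust z-score exceeds 3; genes with two or more such siRNAs out of three were retested with fresh siRNAs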", "meaning of the calls": "active = raised luciferase; inactive = no rise", "note": "The whole screen tested about 59,000 reagents; this is a random part of them. About 1,510 of all reagents (2.6%) were called active. 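Calls use total luciferase alone and ignore viability, so some active siRNAs may act by altering cell number.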 The numbers tell different reagents against one gene apart. Not all columns of the deposit are shown."}
{"gene knocked down": "TNC", "siRNA no.": 1, "total luciferase, z-score": 0.785, "Call": "inactive"}
{"gene knocked down": "TNC", "siRNA no.": 2, "total luciferase, z-score": -0.0244, "Call": "inactive"}
{"gene knocked down": "TNC", "siRNA no.": 3, "total luciferase, z-score": 0.582, "Call": "inactive"}
{"gene knocked down": "CHMP2A", "siRNA no.": 1, "total luciferase, z-score": 0.489, "Call": "inactive"}
{"gene knocked down": "CHMP2A", "siRNA no.": 2, "total luciferase, z-score": -1.09, "Call": "inactive"}
{"gene knocked down": "CHMP2A", "siRNA no.": 3, "total luciferase, z-score": 1.43, "Call": "inactive"}
{"gene knocked down": "FIBIN", "siRNA no.": 1, "total luciferase, z-score": -1.29, "Call": "inactive"}
{"gene knocked down": "FIBIN", "siRNA no.": 2, "total luciferase, z-score": -2.2, "Call": "inactive"}
{"gene knocked down": "FIBIN", "siRNA no.": 3, "total luciferase, z-score": -1.74, "Call": "inactive"}
{"gene knocked down": "GEM", "siRNA no.": 1, "total luciferase, z-score": -0.493, "Call": "inactive"}
{"gene knocked down": "GEM", "siRNA no.": 2, "total luciferase, z-score": -0.731, "Call": "inactive"}
{"gene knocked down": "GEM", "siRNA no.": 3, "total luciferase, z-score": -0.533, "Call": "inactive"}
{"gene knocked down": "XKR6", "siRNA no.": 1, "total luciferase, z-score": 0.488, "Call": "inactive"}
{"gene knocked down": "XKR6", "siRNA no.": 2, "total luciferase, z-score": -0.294, "Call": "inactive"}
{"gene knocked down": "XKR6", "siRNA no.": 3, "total luciferase, z-score": -1.79, "Call": "inactive"}
{"gene knocked down": "MEX3B", "siRNA no.": 1, "total luciferase, z-score": 0.792, "Call": "inactive"}
{"gene knocked down": "MEX3B", "siRNA no.": 2, "total luciferase, z-score": -1.02, "Call": "inactive"}
{"gene knocked down": "MEX3B", "siRNA no.": 3, "total luciferase, z-score": 1.22, "Call": "inactive"}
{"gene knocked down": "KIF3A", "siRNA no.": 1, "total luciferase, z-score": -0.178, "Call": "inactive"}
{"gene knocked down": "KIF3A", "siRNA no.": 2, "total luciferase, z-score": 0.1, "Call": "inactive"}
{"gene knocked down": "KIF3A", "siRNA no.": 3, "total luciferase, z-score": 0.278, "Call": "inactive"}
{"gene knocked down": "SLC35F4", "siRNA no.": 1, "total luciferase, z-score": -1.35, "Call": "inactive"}
{"gene knocked down": "SLC35F4", "siRNA no.": 2, "total luciferase, z-score": 0.43, "Call": "inactive"}
{"gene knocked down": "SLC35F4", "siRNA no.": 3, "total luciferase, z-score": -0.111, "Call": "inactive"}
{"gene knocked down": "FAM161A", "siRNA no.": 1, "total luciferase, z-score": 0.294, "Call": "inactive"}
{"gene knocked down": "FAM161A", "siRNA no.": 2, "total luciferase, z-score": 0.327, "Call": "inactive"}
{"gene knocked down": "FAM161A", "siRNA no.": 3, "total luciferase, z-score": -0.311, "Call": "inactive"}
{"gene knocked down": "RHOBTB3", "siRNA no.": 1, "total luciferase, z-score": -0.912, "Call": "inactive"}
{"gene knocked down": "RHOBTB3", "siRNA no.": 2, "total luciferase, z-score": 0.304, "Call": "inactive"}
{"gene knocked down": "RHOBTB3", "siRNA no.": 3, "total luciferase, z-score": 0.414, "Call": "inactive"}
{"gene knocked down": "HRCT1", "siRNA no.": 1, "total luciferase, z-score": 0.196, "Call": "inactive"}
{"gene knocked down": "HRCT1", "siRNA no.": 2, "total luciferase, z-score": 0.197, "Call": "inactive"}
{"gene knocked down": "HRCT1", "siRNA no.": 3, "total luciferase, z-score": 0.085, "Call": "inactive"}

An excerpt from the list above, for reference:
{"gene knocked down": "RHOBTB3", "siRNA no.": 3, "total luciferase, z-score": 0.414, "Call": "inactive"}
{"gene knocked down": "HRCT1", "siRNA no.": 1, "total luciferase, z-score": 0.196, "Call": "inactive"}
{"gene knocked down": "HRCT1", "siRNA no.": 2, "total luciferase, z-score": 0.197, "Call": "inactive"}
